# Some of the results follow. The calls rarely recur for the same compound in another form.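 In K562 cells expressing nanoluciferase-fused kinases, luminescence was recorded at 4 h intervals between 2 and 18 h, normalized as percent of control with DMSO at 100% and a positive control at 0%. A significant (2 sigma) signal drop marks a time point as decreased. The authors' rule for a hit is not shown and takes in more than the number of time points.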
# Amino acid sequences for entries named in this document (tags omitted). A change or cut given only in a name is not applied to a line headed by its entry.
# UniProt Q13555: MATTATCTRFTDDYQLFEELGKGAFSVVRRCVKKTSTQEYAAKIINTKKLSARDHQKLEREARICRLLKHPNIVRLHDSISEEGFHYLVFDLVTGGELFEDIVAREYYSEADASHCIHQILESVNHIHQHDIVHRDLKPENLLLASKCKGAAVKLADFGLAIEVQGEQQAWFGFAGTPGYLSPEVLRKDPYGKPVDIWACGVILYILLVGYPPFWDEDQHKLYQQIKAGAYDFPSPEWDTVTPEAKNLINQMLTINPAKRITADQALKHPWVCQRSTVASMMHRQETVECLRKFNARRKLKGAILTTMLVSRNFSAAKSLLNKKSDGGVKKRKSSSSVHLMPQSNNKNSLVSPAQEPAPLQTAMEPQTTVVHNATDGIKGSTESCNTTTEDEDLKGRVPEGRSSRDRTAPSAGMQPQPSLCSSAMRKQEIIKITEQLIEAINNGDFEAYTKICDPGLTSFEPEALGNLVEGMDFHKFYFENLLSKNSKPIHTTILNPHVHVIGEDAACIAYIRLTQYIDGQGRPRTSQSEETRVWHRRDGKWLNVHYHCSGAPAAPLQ
# UniProt P53671: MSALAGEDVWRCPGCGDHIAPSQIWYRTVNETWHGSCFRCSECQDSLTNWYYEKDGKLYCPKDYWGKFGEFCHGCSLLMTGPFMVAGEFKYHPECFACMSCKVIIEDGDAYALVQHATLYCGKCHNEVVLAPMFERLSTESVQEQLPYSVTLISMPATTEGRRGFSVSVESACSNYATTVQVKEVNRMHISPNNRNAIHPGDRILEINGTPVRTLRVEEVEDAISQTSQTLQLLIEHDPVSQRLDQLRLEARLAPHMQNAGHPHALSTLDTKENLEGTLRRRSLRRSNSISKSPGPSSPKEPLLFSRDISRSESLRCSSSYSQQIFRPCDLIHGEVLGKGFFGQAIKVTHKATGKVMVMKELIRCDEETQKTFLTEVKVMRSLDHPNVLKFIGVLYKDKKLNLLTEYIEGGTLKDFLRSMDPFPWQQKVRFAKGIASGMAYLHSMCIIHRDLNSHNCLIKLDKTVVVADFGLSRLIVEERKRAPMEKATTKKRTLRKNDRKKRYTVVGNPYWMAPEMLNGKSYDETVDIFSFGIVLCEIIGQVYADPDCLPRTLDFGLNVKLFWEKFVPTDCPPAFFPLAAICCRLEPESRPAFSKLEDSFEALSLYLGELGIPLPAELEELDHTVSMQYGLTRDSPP
# UniProt P07949, whole entry, looked up: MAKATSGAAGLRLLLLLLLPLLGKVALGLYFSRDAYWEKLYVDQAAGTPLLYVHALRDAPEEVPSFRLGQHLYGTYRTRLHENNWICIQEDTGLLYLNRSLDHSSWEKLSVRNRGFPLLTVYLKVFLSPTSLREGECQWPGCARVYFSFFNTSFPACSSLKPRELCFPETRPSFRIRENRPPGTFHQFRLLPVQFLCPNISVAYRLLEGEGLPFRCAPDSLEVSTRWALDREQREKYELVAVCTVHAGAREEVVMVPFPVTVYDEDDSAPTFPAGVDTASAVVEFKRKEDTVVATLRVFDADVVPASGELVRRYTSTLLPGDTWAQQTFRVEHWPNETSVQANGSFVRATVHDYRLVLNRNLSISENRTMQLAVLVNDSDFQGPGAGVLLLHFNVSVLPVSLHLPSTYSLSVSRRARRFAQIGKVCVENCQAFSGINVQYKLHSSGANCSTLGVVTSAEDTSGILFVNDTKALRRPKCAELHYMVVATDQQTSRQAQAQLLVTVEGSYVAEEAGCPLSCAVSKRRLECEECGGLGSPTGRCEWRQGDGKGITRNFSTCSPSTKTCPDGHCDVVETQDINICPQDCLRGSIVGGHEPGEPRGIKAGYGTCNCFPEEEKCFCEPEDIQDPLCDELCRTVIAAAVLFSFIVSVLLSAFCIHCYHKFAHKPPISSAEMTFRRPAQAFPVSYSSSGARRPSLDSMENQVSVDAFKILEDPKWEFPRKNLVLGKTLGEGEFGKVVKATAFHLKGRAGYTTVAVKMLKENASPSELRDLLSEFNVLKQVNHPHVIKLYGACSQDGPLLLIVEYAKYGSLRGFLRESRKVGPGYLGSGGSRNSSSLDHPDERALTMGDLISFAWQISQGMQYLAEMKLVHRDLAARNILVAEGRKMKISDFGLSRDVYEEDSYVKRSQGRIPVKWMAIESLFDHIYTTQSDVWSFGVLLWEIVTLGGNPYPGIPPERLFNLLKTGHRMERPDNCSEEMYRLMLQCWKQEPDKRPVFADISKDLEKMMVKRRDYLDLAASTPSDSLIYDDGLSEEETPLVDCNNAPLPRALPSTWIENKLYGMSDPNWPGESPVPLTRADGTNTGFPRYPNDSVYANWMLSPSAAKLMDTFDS
# UniProt P22607, whole entry, looked up: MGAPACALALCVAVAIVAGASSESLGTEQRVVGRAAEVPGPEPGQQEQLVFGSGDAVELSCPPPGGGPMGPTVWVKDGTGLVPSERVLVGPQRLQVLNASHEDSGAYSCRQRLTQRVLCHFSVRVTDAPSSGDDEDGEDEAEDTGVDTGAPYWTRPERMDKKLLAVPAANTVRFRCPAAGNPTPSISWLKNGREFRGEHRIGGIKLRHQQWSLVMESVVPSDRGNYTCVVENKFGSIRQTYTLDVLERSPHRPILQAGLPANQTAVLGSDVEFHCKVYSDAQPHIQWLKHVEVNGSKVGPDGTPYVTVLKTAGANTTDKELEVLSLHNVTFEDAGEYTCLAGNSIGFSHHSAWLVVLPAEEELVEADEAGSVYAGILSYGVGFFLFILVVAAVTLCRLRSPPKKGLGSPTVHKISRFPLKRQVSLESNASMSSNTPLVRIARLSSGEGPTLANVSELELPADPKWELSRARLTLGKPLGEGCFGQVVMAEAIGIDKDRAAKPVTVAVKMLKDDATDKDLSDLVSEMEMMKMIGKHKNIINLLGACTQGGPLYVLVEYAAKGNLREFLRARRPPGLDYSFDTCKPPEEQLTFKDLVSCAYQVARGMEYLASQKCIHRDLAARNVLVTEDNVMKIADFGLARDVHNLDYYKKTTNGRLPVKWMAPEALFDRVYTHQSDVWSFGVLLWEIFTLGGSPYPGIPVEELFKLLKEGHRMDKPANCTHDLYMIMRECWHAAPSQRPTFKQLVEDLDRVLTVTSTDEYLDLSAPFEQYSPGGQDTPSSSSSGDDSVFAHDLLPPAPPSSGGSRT
# UniProt Q15131: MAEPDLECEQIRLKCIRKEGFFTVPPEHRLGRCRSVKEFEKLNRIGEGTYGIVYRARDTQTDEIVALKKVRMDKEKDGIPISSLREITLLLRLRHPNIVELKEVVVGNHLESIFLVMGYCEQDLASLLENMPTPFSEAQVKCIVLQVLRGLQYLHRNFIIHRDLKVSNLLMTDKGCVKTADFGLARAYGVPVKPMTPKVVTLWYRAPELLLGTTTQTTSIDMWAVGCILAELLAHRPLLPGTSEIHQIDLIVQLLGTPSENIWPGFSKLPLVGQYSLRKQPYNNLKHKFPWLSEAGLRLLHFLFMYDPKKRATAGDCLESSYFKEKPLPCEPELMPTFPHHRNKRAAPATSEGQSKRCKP
# UniProt Q15118, whole entry, looked up: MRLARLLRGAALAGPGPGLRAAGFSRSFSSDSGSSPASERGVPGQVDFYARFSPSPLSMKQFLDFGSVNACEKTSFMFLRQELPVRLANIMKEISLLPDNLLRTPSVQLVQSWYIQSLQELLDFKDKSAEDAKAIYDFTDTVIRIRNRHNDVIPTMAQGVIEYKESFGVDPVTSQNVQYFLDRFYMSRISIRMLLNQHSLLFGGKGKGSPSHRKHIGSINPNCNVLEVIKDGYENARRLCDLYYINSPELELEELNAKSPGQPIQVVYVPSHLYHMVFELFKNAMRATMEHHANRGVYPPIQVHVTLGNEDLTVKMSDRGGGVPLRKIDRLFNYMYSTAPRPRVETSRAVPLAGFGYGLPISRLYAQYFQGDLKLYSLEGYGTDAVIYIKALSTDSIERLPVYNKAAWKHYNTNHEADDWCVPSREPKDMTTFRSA
# Experiments:
# Assay in all cases: number of time points (of 5) at which kinase-Nluc abundance scored as decreased, DMSO-normalised (count); higher = more persistent destabilization
# [1] = compound: CNC(=O)c1ccccc1Nc1cc(Nc2ccc(N3CCOCC3)cc2OC)ncc1C(F)(F)F; settings: 10 µM; K562; 2-18 h
# G-5555 (hydrochloride) = compound: CNc1ncc2cc(-c3ccc(-c4cccc(C)n4)cc3Cl)c(=O)n(C[C@H]3OC[C@H](N)CO3)c2n1 [G-5555 (hydrochloride)]; settings: 10 µM; K562; 2-18 h
# [2] = compound: CNc1ncc2cc(-c3ccc(-c4cccc(C)n4)cc3Cl)c(=O)n(C[C@H]3OC[C@H](N)CO3)c2n1; settings: 10 µM; K562; 2-18 h
# [3] = compound: COC(=O)[C@H](CC(C)C)NC(=O)c1ccc(NC[C@@H](N)CS)cc1-c1cccc2ccccc12 [GGTI298 (Trifluoroacetate)]; settings: 10 µM; K562; 2-18 h
# [4] = compound: COC(=O)[C@H](CC(C)C)NC(=O)c1ccc(NC[C@@H](N)CS)cc1-c1cccc2ccccc12; settings: 10 µM; K562; 2-18 h
# AZD3229 Tosylate = compound: COCCOc1cc(F)c2c(Nc3ccc(NC(=O)Cn4cc(C(C)C)nn4)cc3)ncnc2c1 [AZD3229 Tosylate]; settings: 10 µM; K562; 2-18 h
# [5] = compound: COCCOc1cc(F)c2c(Nc3ccc(NC(=O)Cn4cc(C(C)C)nn4)cc3)ncnc2c1; settings: 10 µM; K562; 2-18 h
# Ferulic acid (sodium) = compound: COc1cc(/C=C/C(=O)O)ccc1O [Ferulic acid (sodium)]; settings: 10 µM; K562; 2-18 h
# Ferulic acid = compound: COc1cc(/C=C/C(=O)O)ccc1O [Ferulic acid]; settings: 10 µM; K562; 2-18 h
# ALK2-IN-4 (succinate) = compound: COc1cc2c(-c3cnn4cc(N5CCC(N6CCN(C)CC6)CC5)cnc34)ccnc2cc1F [ALK2-IN-4 (succinate)]; settings: 10 µM; K562; 2-18 h
# [6] = compound: COc1cc2c(-c3cnn4cc(N5CCC(N6CCN(C)CC6)CC5)cnc34)ccnc2cc1F; settings: 10 µM; K562; 2-18 h
# Cediranib (maleate) = compound: COc1cc2c(Oc3ccc4[nH]c(C)cc4c3F)ncnc2cc1OCCCN1CCCC1 [Cediranib (maleate)]; settings: 2.5 µM; K562; 2-18 h
# Cediranib = compound: COc1cc2c(Oc3ccc4[nH]c(C)cc4c3F)ncnc2cc1OCCCN1CCCC1 [Cediranib]; settings: 2.5 µM; K562; 2-18 h
# [7] = compound: COc1cc2c(cc1OC)-c1c(C)c3ccc(OC)c(OC)c3c[n+]1CC2 [Dehydrocorydaline (chloride)]; settings: 10 µM; K562; 2-18 h
# Dehydrocorydaline = compound: COc1cc2c(cc1OC)-c1c(C)c3ccc(OC)c(OC)c3c[n+]1CC2 [Dehydrocorydaline]; settings: 10 µM; K562; 2-18 h
# [8] = compound: COc1cc2nccc(Nc3cc(OC)c(OC)c(OC)c3)c2cc1OC [GAK inhibitor 49 (hydrochloride)]; settings: 10 µM; K562; 2-18 h
# GAK inhibitor 49 = compound: COc1cc2nccc(Nc3cc(OC)c(OC)c(OC)c3)c2cc1OC [GAK inhibitor 49]; settings: 10 µM; K562; 2-18 h
# Cabozantinib (S-malate) = compound: COc1cc2nccc(Oc3ccc(NC(=O)C4(C(=O)Nc5ccc(F)cc5)CC4)cc3)c2cc1OC [Cabozantinib (S-malate)]; settings: 10 µM; K562; 2-18 h
# Cabozantinib = compound: COc1cc2nccc(Oc3ccc(NC(=O)C4(C(=O)Nc5ccc(F)cc5)CC4)cc3)c2cc1OC [Cabozantinib]; settings: 2.5 µM; K562; 2-18 h
# KN-93 (hydrochloride) = compound: COc1ccc(S(=O)(=O)N(CCO)c2ccccc2CN(C)C/C=C/c2ccc(Cl)cc2)cc1 [KN-93 (hydrochloride)]; settings: 2.5 µM; K562; 2-18 h
Target,number of time points [1],number of time points (G-5555 (hydrochloride)),number of time points [2],number of time points [3],number of time points [4],number of time points (AZD3229 Tosylate),number of time points [5],number of time points (Ferulic acid (sodium)),number of time points (Ferulic acid),number of time points (ALK2-IN-4 (succinate)),number of time points [6],number of time points (Cediranib (maleate)),number of time points (Cediranib),number of time points [7],number of time points (Dehydrocorydaline),number of time points [8],number of time points (GAK inhibitor 49),number of time points (Cabozantinib (S-malate)),number of time points (Cabozantinib),number of time points (KN-93 (hydrochloride))
CAMK2G (UniProt Q13555),0,0,0,0,0,0,0,0,0,0,0,0,0,0,0,0,0,0,0,0
LIMK2 (UniProt P53671),0,0,0,0,0,0,0,0,0,0,0,0,0,0,0,3,0,1,1,0
RET (UniProt P07949),0,0,0,0,0,0,0,0,0,0,0,0,0,0,0,0,0,1,2,0
FGFR3 (UniProt P22607),0,0,0,0,0,0,0,0,0,0,0,0,0,0,0,0,0,0,0,0
CDK10 (UniProt Q15131),0,0,0,0,0,0,0,0,0,0,0,0,0,0,0,0,0,0,0,0
PDK1 (UniProt Q15118),0,0,0,0,0,0,0,0,0,0,0,0,0,1,0,0,0,0,0,0

# Reference: the supplement of paper PMC12823440, “Inhibitors supercharge kinase turnover through native proteolytic circuits” (Nature, 2025)
